Where “and” joins values, the source holds several entries; their conditions need not be identical. Equal values may be shown once. The list shows a part of the results. For some of these results: The exact form of the protein is not confirmed.

Sequences of proteins named here, by UniProt entry; tags and fusion partners are left off. A change or cut given only in a name is not applied to a line headed by its entry.
UniProt Q9BTC0, whole entry: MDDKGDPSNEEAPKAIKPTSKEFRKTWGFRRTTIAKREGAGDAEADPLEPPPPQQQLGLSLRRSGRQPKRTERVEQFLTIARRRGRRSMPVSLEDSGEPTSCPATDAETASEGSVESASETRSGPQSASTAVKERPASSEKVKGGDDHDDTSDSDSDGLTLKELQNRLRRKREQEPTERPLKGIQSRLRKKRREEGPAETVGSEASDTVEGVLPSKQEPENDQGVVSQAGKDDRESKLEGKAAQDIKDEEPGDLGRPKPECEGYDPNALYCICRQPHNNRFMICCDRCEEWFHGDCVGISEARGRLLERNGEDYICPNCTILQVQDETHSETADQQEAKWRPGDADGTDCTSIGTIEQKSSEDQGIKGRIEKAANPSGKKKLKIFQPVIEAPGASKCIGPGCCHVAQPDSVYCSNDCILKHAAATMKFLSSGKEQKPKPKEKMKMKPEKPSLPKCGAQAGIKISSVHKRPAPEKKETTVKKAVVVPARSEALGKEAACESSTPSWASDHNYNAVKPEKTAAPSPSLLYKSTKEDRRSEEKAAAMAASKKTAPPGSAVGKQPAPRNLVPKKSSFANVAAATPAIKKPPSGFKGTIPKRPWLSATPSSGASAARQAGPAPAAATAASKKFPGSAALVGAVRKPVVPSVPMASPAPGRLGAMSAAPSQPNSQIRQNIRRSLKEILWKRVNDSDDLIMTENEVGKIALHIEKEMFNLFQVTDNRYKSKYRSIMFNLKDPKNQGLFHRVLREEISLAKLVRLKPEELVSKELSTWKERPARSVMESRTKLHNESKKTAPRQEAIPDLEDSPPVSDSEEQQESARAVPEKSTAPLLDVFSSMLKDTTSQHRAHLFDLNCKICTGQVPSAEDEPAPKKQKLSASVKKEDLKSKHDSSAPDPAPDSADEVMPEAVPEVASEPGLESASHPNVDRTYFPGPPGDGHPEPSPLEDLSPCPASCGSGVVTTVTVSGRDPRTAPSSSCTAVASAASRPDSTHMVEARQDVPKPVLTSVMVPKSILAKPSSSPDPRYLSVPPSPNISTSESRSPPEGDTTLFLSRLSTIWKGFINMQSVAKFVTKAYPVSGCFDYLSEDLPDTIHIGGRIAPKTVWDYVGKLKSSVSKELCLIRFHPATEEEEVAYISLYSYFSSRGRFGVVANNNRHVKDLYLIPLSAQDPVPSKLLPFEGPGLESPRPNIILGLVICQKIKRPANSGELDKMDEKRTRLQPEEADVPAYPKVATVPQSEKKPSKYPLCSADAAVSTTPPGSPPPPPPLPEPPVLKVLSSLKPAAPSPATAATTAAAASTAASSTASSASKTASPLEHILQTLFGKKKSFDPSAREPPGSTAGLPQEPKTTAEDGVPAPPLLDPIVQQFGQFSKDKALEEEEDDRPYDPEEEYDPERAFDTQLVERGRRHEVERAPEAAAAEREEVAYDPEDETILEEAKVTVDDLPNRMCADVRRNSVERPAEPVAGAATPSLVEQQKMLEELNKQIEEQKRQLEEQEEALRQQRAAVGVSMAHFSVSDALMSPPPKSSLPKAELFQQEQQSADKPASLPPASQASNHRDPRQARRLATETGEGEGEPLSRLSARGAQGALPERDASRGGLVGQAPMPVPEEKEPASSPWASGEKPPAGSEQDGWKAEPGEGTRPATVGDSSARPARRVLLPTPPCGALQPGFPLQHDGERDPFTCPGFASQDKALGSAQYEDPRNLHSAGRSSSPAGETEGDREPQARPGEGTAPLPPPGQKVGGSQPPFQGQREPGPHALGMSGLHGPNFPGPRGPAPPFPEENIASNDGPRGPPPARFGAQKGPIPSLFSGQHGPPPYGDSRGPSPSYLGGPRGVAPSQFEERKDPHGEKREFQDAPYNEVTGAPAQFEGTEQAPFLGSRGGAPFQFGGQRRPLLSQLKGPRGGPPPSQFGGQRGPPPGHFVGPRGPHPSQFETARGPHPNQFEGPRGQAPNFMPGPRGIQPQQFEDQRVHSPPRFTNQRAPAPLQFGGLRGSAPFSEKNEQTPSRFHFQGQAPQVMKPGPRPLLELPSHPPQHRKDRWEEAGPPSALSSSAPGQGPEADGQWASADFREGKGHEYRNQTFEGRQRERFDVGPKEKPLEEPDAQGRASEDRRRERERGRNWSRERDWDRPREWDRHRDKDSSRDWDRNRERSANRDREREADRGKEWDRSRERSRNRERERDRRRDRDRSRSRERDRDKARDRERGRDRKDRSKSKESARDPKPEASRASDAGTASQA
UniProt Q9UNQ2: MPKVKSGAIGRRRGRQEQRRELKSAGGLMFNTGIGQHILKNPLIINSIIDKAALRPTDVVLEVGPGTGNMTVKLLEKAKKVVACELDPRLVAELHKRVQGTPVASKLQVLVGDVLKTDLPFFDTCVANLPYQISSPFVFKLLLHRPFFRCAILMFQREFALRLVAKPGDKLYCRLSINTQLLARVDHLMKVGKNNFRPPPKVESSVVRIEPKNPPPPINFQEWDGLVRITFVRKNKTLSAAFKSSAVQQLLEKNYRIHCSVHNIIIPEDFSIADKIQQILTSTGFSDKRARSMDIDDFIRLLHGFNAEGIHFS

Some test systems named below: DGCR6 (human); DIABLO (human); DIP (human); DKFZP434K028 (human); DKFZP564O0823 (human); DKFZp434B1231 (human); DLK2 (human); DMD (human).
What all share (assay): protein microarray (ProtoArray v5.0), streptavidin-Alexa Fluor 647
Common to all, as to conditions: 3'-biotin; 20 mM Tris (pH 7.5), 5 mM MgCl2, 100 mM KCl, 0.1% Tween-20, A/T-rich and random oligonucleotide blockers; temperature not stated; high values mean tight binding

In a further test the target is DIDO1 (UniProt Q9BTC0).
The next test concerns the target DIMT1L (UniProt Q9UNQ2).

Take “GGTGACAGGGGTATGGGGAGGGG [G4-2 biotinylated (Ct1)]”: the binding signal is -0.402 z-score with DGCR6 (human); -0.395 z-score in the test with DIABLO (human); 4.25 z-score with DIDO1; 6.79 z-score in the test with DIMT1L; -0.378 z-score in the test with DIP (human); 4.33 z-score with DKFZP434K028 (human). The binding signal is -0.379 z-score with DKFZP564O0823 (human); -0.384 z-score in the test on DKFZp434B1231 (human); -0.36 z-score with DLK2 (human); -0.391 z-score and -0.398 z-score in the test on DMD (human).
